Assay results taken from patent publication US20240307358 (published 2024).
Plain letter strings leave the end groups untold.

Test: general procedure: Fmoc solid-phase peptide synthesis; Wang Resin (EMD Millipore); HBTU/DIPEA
Settings: whole synthesis, scale 0.125 mmol

WHWLPNLRHYAS
final LC-MS purity: >95%
